This test addresses T1, 6Myc-TRIM48 (human) (UniProt Q8IWZ4).
T1 sequence: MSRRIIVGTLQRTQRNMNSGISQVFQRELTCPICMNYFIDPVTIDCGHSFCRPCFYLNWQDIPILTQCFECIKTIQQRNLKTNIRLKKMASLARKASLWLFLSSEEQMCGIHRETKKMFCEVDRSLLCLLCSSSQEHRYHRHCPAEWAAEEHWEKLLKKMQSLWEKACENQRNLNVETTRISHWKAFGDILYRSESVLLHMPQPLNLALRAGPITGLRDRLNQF
The test can be described thus: co-IP; HEK293A cells transfected with the plasmids, treated with 5 uM MG132 for 6 h; lysed in IP lysis buffer (20 mM Tris-HCl pH 7.4, 150 mM NaCl, 10 mM EDTA, 1% Triton-X100, 1% sodium deoxycholate); immunoprecipitated with anti-Myc antibody, immunoblot. In general terms: Immunoblotting shows a protein as a band on a membrane.

Results are given in words; binding and its absence hold for the method and conditions named. Binding seen in cells or lysates may run through a third protein. Some entries that bind do so weakly or less than the wild type. Where a sequence is shown, tags or fusion partners need not be part of it.

B1: Flag-FBXO17 (protein, UniProt Q96EF6 1-278)
chain: MGARLSRRRLPADPSLALDALPPELLVQVLSHVPPRSLVTRCRPVCRAWRDIVDGPTVWLLQLARDRSAEGRALYAVAQRCLPSNEDKEEFPLCALARYCLRAPFGRNLIFNSCGEQGFRGWEVEHGGNGWAIEKNLTPVPGAPSQTCFVTSFEWCSKRQLVDLVMEGVWQELLDSAQIEICVADWWGARENCGCVYQLRVRLLDVYEKEVVKFSASPDPVLQWTERGCRQVSHVFTNFGKGIRYVSFEQYGRDVSSWVGHYGALVTHSSVRVRIRLS
On to B1, for which the binding result was “binds”.

These data come from paper PMC12524865.
